From US11492325B2 come the findings set out here.

Protein sequences, listed by entry. Tags and fused reporters are not part of them.
UniProt Q12809, whole entry: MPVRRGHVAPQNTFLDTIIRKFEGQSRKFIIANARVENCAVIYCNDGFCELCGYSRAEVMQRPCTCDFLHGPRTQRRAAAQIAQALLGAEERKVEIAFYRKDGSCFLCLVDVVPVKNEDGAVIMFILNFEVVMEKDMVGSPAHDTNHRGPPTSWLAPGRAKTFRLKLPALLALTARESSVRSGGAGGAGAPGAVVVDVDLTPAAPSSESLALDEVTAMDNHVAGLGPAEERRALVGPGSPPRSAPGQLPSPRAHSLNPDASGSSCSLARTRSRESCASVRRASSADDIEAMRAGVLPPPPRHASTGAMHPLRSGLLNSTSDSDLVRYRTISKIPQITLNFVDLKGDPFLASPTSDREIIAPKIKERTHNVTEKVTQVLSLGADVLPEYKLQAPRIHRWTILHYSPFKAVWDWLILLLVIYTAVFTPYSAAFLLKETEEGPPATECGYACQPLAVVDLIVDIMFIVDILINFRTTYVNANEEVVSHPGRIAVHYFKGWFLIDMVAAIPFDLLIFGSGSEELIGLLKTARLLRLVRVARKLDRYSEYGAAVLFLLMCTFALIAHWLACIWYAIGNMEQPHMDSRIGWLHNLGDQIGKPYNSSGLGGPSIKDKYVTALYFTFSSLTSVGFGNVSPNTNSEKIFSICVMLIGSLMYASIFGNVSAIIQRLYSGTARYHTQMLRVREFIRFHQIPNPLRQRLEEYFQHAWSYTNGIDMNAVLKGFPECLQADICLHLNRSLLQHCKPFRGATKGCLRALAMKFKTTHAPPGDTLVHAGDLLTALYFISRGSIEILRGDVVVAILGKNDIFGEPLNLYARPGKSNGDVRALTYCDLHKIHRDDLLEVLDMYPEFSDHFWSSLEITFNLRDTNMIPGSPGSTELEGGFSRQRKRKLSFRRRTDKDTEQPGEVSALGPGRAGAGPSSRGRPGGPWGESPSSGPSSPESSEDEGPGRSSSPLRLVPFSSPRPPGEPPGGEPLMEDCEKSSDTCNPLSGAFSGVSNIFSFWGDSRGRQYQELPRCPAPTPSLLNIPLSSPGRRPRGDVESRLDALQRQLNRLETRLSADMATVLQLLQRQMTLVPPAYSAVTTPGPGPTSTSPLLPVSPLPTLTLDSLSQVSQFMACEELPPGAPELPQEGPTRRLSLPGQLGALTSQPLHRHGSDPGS

Series [1] has as its target hERG potassium channel (IKr) (Homo sapiens, UniProt Q12809). Particulars: ratio, Example 2; tested form: HCl.
The target of series [2] is Na+ channel currents in LQT3 patient-derived cardiomyocytes (Homo sapiens, UniProt Q14524). Particulars: tested form: HCl.

Read-outs that look alike come from different tables or passages of the source. The structures given here were assigned with low confidence; some may be wrong.

Regarding `NC(COc1ccccc1C(F)(F)F)c1ccccc1` (stereo not drawn), in series [1], the DKr/NaL is given as 36.1 and the DNaP/Kr is given as 1.1. Also, the “ratio (INaP/INaL)” value in series [2] (LQT3 patient-derived cardiomyocytes) is reported as greater than 56. Further, the “ratio (INaP/INaL)” value in series [2] (Peak/Late ratio) amounted to 111. Further, the “Ratio Mex INaL/Lead INaL” value in series [2] (potency relative to Mexiletine) was found to be 28.3. Also, the “Ratio of Mex Ratio/Lead Ratio” value in series [2] (selectivity relative to Mexiletine) is 41.
